Data taken from US20080032927A1 (published 2008).
These are yes or no findings as the source states them, for the method shown. In cells and extracts the contact can be indirect. Some results given as binding are weak or reduced against the parent protein; the word gives no strength. For some of these results: Sequences can lack the tags named with a protein.

Protein sequences, listed by entry. Tags and fused reporters are not part of them.
UniProt Q9NQB0: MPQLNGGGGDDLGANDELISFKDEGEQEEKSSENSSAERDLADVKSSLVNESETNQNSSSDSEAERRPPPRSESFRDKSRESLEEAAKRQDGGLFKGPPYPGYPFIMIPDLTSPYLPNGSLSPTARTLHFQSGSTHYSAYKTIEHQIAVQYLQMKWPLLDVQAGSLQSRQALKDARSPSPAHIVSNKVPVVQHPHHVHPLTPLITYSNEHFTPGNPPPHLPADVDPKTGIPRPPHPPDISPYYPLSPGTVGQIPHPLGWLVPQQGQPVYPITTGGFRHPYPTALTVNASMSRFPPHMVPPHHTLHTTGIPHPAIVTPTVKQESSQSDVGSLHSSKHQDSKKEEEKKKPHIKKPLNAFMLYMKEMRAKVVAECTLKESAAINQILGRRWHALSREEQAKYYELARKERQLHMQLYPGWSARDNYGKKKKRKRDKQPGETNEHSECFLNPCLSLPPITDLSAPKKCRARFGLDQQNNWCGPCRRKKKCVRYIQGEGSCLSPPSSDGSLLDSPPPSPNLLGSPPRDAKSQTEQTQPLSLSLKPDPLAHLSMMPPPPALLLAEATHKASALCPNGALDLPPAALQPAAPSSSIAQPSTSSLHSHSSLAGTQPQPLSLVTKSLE

B1: myc-Xom (protein, not shown: small tags and cut ends)
chain: MTKAFSSVEWLAQSSRRSHREQPSKVDQRYSPYPSPSLPSWNSDVSPSSWNSQLSPDPDSAQVSPCPASAQVSPYSSDSEISLYSHEEEASFYGMDLNTSSSPGDNGLLHSEMVSVPDNIPRASSDEDAAKSAYSTSTDSGYESETSCSSSTAPEGDAISLSPNDTSDEEGKMGRRLRTAFTSDQISTLEKTFQKHRYLGASERQKLAAKLQLSEVQIKTWFQNRRMKYKREIQDGRPDSYHPAQFFGVYGYAQQPTPVFQHAVQHPYPGYNPLMETLPGTMPYTMHPPAMDSMTPFNSQPFQMLYLPQQHLGQPLTYQEERPFVRY
B2: XomND55 (protein)
chain: PDPDSAQVSPCPASAQVSPYSSDSEISLYSHEEEASFYGMDLNTSSSPGDNGLLHSEMVSVPDNIPRASSDEDAAKSAYSTSTDSGYESETSCSSSTAPEGDAISLSPNDTSDEEGKMGRRLRTAFTSDQISTLEKTFQKHRYLGASERQKLAAKLQLSEVQIKTWFQNRRMKYKREIQDGRPDSYHPAQFFGVYGYAQQPTPVFQHAVQHPYPGYNPLMETLPGTMPYTMHPPAMDSMTPFNSQPFQMLYLPQQHLGQPLTYQEERPFVR
B3: XomND175 (protein)
chain: RLRTAFTSDQISTLEKTFQKHRYLGASERQKLAAKLQLSEVQIKTWFQNRRMKYKREIQDGRPDSYHPAQFFGVYGYAQQPTPVFQHAVQHPYPGYNPLMETLPGTMPYTMHPPAMDSMTPFNSQPFQMLYLPQQHLGQPLTYQEERPFVR
B4: XomCD85 (protein)
chain: MTKAFSSVEWLAQSSRRSHREQPSKVDQRYSPYPSPSLPSWNSDVSPSSWNSQLSPDPDSAQVSPCPASAQVSPYSSDSEISLYSHEEEASFYGMDLNTSSSPGDNGLLHSEMVSVPDNIPRASSDEDAAKSAYSTSTDSGYESETSCSSSTAPEGDAISLSPNDTSDEEGKMGRRLRTAFTSDQISTLEKTFQKHRYLGASERQKLAAKLQLSEVQIKTWFQNRRMKYKREIQDGRPDSY

Legend:
TCF4 [1] = target: T1, TCF4 (UniProt Q9NQB0 1-619, limits assumed); test: co-immunoprecipitation from HCT116 cells transfected with myc-Xom; association not dissociated with 300 mM NaCl and 0.1% NP40
T1 construct: Endogenous protein of HCT116 cells; also called endogenous TCF4

TCF4 [2] = target: T1, TCF4; test: co-immunoprecipitation with anti-TCF4 beads
Method: Co-immunoprecipitation-The affinity-protein G beads were prepared by mixing 20 μl of protein G plus-Agarose beads (Santa Cruz Biotechnology) with 1 μg of corresponding antibody. A total of 2×10⁶ of cells were lysed with 1× cells lysis buffer (Promega) containing 1× protease inhibitor reagent (Roche), incubated on ice for 30 minutes, sonicated briefly, and centrifuged at 12,000 g for 5 minutes at 4° C. The supernatants were further cleaned with 20 μl of untreated protein G plus-Agarose beads and 2 μg of pre-immune serum for 2 hours at 4° C. The supernatants were then mixed with 20 μl of prelabeled protein G plus-Agarose beads at 4° C. overnight. The beads were washed four times with PBS plus 0.2% NP40.
Xom binds to LEF1/TCF factors in vivo and in vitro-Binding of LEF1/TCFs to the promoter of TOPflash is required for the activation of the reporter construct; thus, the finding that expression of Xom activates TOPflash but not FOPflash raised the possibility that Xom activates the TOPflash reporter through interaction with LEF1/TCFs. This hypothesis was tested by determining whether Xom physically interacts with LEF1/TCFs. Co-immunoprecipitation experiments was carried out in HCT116 cells transiently transfected with mye-Xom. […] The in vivo association between Xom and TCF4 appears to be strong and could not be dissociated with 300 mM NaCl and 0.1% NP40. To determine the domain of Xom that mediates its interaction with LEF1/TCFs, serial deletion mutants of Xom were made and tested for their interactions with TCF4 in vivo. The proteins used were: wild type Xom (aa 1-326), XomND55 (aa. 56-326), XomND175 (aa. 176-326), XomCD145 (aa. 146-326), XomCD85 (aa. 86-326), and XomID110 (fusion of aa 1-130 and aa 241-326).

binding (TCF4 [1]) | binding (TCF4 [2]) | Binder
binds |  | B1
 | binds | B2
 | binds | B3
 | binds | B4
